# Laboratory results: US20260345795A1, “MULTIVALENCY FOR ENZYME INHIBITION” (Indiana University Research and Technology Corporation, priority 2022, published 2026)
# Sequences of proteins named here, by UniProt entry; tags and fusion partners are left off. Residues count along the entry.
# UniProt P00747, 97-580 limits assumed: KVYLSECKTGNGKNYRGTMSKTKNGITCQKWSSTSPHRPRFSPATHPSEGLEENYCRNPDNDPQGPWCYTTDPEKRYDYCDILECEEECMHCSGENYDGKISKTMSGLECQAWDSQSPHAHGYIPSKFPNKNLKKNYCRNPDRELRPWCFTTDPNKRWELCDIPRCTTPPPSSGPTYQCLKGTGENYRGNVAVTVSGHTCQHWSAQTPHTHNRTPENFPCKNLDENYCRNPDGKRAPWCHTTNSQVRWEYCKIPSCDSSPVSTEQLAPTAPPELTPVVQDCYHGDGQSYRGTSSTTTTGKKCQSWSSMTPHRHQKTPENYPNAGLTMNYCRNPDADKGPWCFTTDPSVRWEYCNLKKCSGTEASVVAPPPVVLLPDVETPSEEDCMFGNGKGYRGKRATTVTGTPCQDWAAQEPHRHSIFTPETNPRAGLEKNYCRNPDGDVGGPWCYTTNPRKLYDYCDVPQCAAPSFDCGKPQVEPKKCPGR
# UniProt P00747, 581-810 limits assumed: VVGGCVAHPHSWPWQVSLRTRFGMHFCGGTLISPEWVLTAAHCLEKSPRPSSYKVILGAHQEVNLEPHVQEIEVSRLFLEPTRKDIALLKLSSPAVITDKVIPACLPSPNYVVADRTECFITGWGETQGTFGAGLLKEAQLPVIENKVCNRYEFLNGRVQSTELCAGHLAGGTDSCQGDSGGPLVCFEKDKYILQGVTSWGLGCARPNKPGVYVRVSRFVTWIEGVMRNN
# The structures given here were assigned with low confidence; some may be wrong.
# Molecular target: Human plasmin (Homo sapiens, UniProt P00747)
# Experiment: Plasmin inhibition assay with chromogenic substrate S-2251, Dixon plot / Cornish-Bowden analysis
# Type: biochemical
# Conditions: role: inhibitor, S-2251 100-500 μM; for rp: relative potency = Ki^TXA/Ki^multi: TXA affinity molecules relative to TXA
SMILES,"Ki (read-out: Inhibition constant (Ki), TXA affinity molecules, human plasmin 42.5 nM, listed as PAMAM 8-TXA) [nM]",rp: relative potency = Ki^TXA/Ki^multi (plasmin),"rp/n: relative potency/number of TXA units (plasmin, relative to TXA per TXA unit)"
NC[C@H]1CC[C@H](C(=O)NCCNC(=O)CCN(CCNC(=O)CCN(CCC(=O)NCCN(CCC(=O)NCCNC(=O)[C@H]2CC[C@H](CN)CC2)CCC(=O)NCCNC(=O)[C@H]2CC[C@H](CN)CC2)CCN(CCC(=O)NCCN(CCC(=O)NCCNC(=O)[C@H]2CC[C@H](CN)CC2)CCC(=O)NCCNC(=O)[C@H]2CC[C@H](CN)CC2)CCC(=O)NCCN(CCC(=O)NCCNC(=O)[C@H]2CC[C@H](CN)CC2)CCC(=O)NCCNC(=O)[C@H]2CC[C@H](CN)CC2)CCC(=O)NCCNC(=O)[C@H]2CC[C@H](CN)CC2)CC1,2470,8548,1069
NC[C@H]1CC[C@H](C(=O)NCCNC(=O)CCN(CCNC(=O)CCN(CCNC(=O)CCN(CCC(=O)NCCN(CCC(=O)NCCN(CCC(=O)NCCNC(=O)[C@H]2CC[C@H](CN)CC2)CCC(=O)NCCNC(=O)[C@H]2CC[C@H](CN)CC2)CCC(=O)NCCN(CCC(=O)NCCNC(=O)[C@H]2CC[C@H](CN)CC2)CCC(=O)NCCNC(=O)[C@H]2CC[C@H](CN)CC2)CCN(CCC(=O)NCCN(CCC(=O)NCCN(CCC(=O)NCCNC(=O)[C@H]2CC[C@H](CN)CC2)CCC(=O)NCCNC(=O)[C@H]2CC[C@H](CN)CC2)CCC(=O)NCCN(CCC(=O)NCCNC(=O)[C@H]2CC[C@H](CN)CC2)CCC(=O)NCCNC(=O)[C@H]2CC[C@H](CN)CC2)CCC(=O)NCCN(CCC(=O)NCCN(CCC(=O)NCCNC(=O)[C@H]2CC[C@H](CN)CC2)CCC(=O)NCCNC(=O)[C@H]2CC[C@H](CN)CC2)CCC(=O)NCCN(CCC(=O)NCCNC(=O)[C@H]2CC[C@H](CN)CC2)CCC(=O)NCCNC(=O)[C@H]2CC[C@H](CN)CC2)CCC(=O)NCCN(CCC(=O)NCCNC(=O)[C@H]2CC[C@H](CN)CC2)CCC(=O)NCCNC(=O)[C@H]2CC[C@H](CN)CC2)CCC(=O)NCCNC(=O)[C@H]2CC[C@H](CN)CC2)CC1,,5936,
